Binding data for four molecules are collected here from publication PMC6141542.

The chains behind the UniProt entries cited, without tags or fusion partners.
UniProt P12813: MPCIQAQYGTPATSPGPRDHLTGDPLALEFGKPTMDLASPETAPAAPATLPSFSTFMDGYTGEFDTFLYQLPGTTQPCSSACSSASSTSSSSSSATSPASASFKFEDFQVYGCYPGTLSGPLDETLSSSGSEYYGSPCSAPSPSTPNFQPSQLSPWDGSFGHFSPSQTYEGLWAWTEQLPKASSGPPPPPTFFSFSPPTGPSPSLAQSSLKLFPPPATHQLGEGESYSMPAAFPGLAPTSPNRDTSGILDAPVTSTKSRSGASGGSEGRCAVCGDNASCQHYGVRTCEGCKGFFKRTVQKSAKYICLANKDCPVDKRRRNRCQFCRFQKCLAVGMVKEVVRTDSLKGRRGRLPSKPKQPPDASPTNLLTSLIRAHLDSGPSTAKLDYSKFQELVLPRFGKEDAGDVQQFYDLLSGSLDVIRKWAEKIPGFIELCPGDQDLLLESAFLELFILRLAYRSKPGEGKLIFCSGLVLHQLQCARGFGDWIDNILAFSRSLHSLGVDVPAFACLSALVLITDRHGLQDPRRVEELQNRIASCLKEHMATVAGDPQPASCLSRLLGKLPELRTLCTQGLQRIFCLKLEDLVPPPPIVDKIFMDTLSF
UniProt P68400: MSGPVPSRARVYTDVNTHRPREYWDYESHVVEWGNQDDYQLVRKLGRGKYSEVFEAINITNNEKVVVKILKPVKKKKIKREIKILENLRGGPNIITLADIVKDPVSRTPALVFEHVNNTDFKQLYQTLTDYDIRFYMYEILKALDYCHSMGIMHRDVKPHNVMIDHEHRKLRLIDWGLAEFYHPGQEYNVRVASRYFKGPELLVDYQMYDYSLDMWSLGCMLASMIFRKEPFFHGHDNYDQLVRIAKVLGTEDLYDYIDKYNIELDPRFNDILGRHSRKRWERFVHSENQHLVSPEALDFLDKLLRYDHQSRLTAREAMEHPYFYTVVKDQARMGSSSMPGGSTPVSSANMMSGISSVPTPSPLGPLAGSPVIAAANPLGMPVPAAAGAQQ

Holding throughout (experiment): co-IP; HeLa cells transfected with plasmids, lysates 36 h after transfection in RIPA buffer (20 mM HEPES pH 7.5, 1% NP-40, 0.1% SDS, 0.5% deoxycholic acid, 150 mM NaCl, 10 uM NaF, protease inhibitors); antibody overnight, protein A-Sepharose 1 h; western blot
For experiment [1], the target named is Flag-tagged Nur77 (mouse) (UniProt P12813).
For another experiment, the target named is T1, Flag-Trim13 (mouse) (UniProt Q9CYB0).
T1 sequence: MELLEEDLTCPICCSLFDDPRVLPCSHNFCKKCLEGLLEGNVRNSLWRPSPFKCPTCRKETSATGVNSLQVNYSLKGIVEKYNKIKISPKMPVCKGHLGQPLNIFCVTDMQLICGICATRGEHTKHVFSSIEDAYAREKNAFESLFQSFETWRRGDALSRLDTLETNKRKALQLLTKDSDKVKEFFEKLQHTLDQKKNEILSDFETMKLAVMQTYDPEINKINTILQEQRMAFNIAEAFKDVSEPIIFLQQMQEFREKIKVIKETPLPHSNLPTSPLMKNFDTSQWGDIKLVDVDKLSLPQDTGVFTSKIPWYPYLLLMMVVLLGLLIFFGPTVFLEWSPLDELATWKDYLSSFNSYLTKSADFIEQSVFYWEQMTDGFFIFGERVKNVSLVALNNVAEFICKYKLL

The target in another experiment is Myc-CK2α (UniProt P68400).

No constants are given. Whether binding was seen depends on the method and setting. In cells and extracts the contact can be indirect. Some entries that bind do so weakly or less than the wild type. For some of these results: Tags and fused reporters may be left off the sequences shown.

Regarding “Myc-CK2α (from UniProt P68400 1-391) (enzyme)”, the binding entry in experiment [1] is “binds”.

Regarding “Nur77 (as transfected with Flag-Trim13 in Fig. 2h) (from UniProt P12813 1-601)”, the binding entry with Flag-Trim13 (mouse) is on record as “binds”.

As to “Flag-tagged Nur77 (from UniProt P12813 1-601)”, the binding result with Myc-CK2α is “binds”.

B1: Trim13 (as transfected with Flag-Nur77 in Fig. 2g) (enzyme, UniProt Q9CYB0 1-407)
chain: T1 sequence
In the case of B1, the binding entry in experiment [1] is on record as “binds”.
